Results from article doi:10.1101/2022.01.01.474692v1 (bioRxiv, 2022).

Experiment: ThT and Congo-red staining of fibrils
Assay type: physicochemical
Conditions: 30 min

GNNQQNY [GNNQQNY fibers]
Congo-red staining of fibrils (Congo-red 1 mg/mL, microscopy): apple-green birefringence | ThT staining of fibrils (ThT 0.8 mg/mL, fluorescence microscopy): yellow-green fluorescence
